{"source": "patent US12663426B2", "about": "“Method and composition for measurement of nitric oxide” (The University of Chicago, priority 2019, dated 2026)", "system": "T-47D cells", "test": "Golgi fragmentation (Giantin/GM130 immunofluorescence)", "format": "cell-based", "procedure": "Immunofluorescence staining. Cells were cultured on a glass bottom 3.5 cm imaging dish to reach 60% confluency. […] Treated cells were then washed three times with 1× PBS (pH 7.4) and fixed using, 4% paraformaldehyde at room temperature (RT, 15 min). Subsequently, cells were permeabilized using 0.25% triton X-100 followed by blocking using 3% BSA in 1× PBS. Cells were then incubated with indicated primary antibodies—mouse monoclonal anti-eNOS antibody (SantaCruz Cat #sc-376751), Polyclonal Anti-S-nitrosocysteine antibody (Abeam Cat #ab94930 or Abeam Cat #ab50185), Rabbit polyclonal Anti-Giantin antibody (Abeam Cat #ab24586) or Mouse monoclonal Anti-GM130 antibody (BD Biosciences Cat #610822) in blocking buffer (3% BSA in 1× 4 PBS) for 1 hour at RT. Cells were then washed for 5 min with 1× PBS (3×). Respective secondary antibodies conjugated with either Alexafluor 488 or Alexafluor 647 were added to the cells and incubated for 1 hr at RT. Cells were washed again to remove excess secondary antibody using 1× PBS for 5 min (3×). Hoechst 33342 (5 μM) was added 10 min prior to imaging to stain nuclear DNA. Cells were then imaged on a Leica SP8 laser scanning confocal microscope using excitation wavelengths 405 nm (Hoechst), 488 nm (AlexaFluor 488) and 647 nm (AlexaFluor 647). […]\nGolgi fragmentation was quantified with immunofluorescence images of Golgi structural protein Giantin. […]", "note": "Where a name gives a salt, the structure may show the parent alone. For at least one compound, name, drawing or mass did not settle the structure.", "data": [{"smiles": "CCCc1nn(C)c2c(=O)[nH]c(-c3cc(S(=O)(=O)N4CCN(C)CC4)ccc3OCC)nc12", "note": "[sildenafil citrate]", "values": [{"measurement": "Golgi fragmentation by treatment alone", "result": "did not fragment the Golgi"}]}]}
